Laboratory results: PubChem BioAssay AID1508597 (Cure First, 2020)
Test: 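Knock-downs altering ovarian cancer cell survival with or without PARP inhibitor rucaparib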 (primary screen). System: human ovarian carcinoma lines grown from tumours: OCI-P5x (papillary serous) and OCI-C5x (clear cell). Knock-down reagent: siRNA pool against human genes, 1.25 pmol siRNA per well. Timing: 72 h or 96 h, depending on the cell culture. Treatment: rucaparib 20 µM (about IC30) or vehicle, present until read-out. Measurement: 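Luminescent ATP-based viability assay read 72 or 96 h after transfection, depending on culture, given as normalised percent viability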. Reading the numbers: viability, normalised: higher = more viable cells remaining. Rule for the call: 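a well counts as a hit if its normalised viability is under 80 percent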. Meaning of the calls: active = viability under 80%; inactive = viability 80% or more.
This is an unselected part of about 2,100 reagents tested. 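Calls flag viability under 80% in either arm, not effects specific to rucaparib; the reference for percent is not stated.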 Reagent sequences are not shown. Not given: the 100% reference.

viability, normalised (%)	call	Target gene	rucaparib or vehicle	cell line	technical replicate
34.4	active	CREBBP (GeneID 1387)	Rucaparib	OCI-C5x (clear cell)	1
31.3	active	CREBBP (GeneID 1387)	Rucaparib	OCI-C5x (clear cell)	2
26.9	active	CREBBP (GeneID 1387)	Rucaparib	OCI-C5x (clear cell)	3
54.1	active	CREBBP (GeneID 1387)	Rucaparib	OCI-P5x (serous)	1
68.7	active	CREBBP (GeneID 1387)	Rucaparib	OCI-P5x (serous)	2
66.2	active	CREBBP (GeneID 1387)	Rucaparib	OCI-P5x (serous)	3
36	active	CREBBP (GeneID 1387)	Vehicle	OCI-C5x (clear cell)	1
37.8	active	CREBBP (GeneID 1387)	Vehicle	OCI-C5x (clear cell)	2
31.7	active	CREBBP (GeneID 1387)	Vehicle	OCI-C5x (clear cell)	3
59.3	active	CREBBP (GeneID 1387)	Vehicle	OCI-P5x (serous)	1
65	active	CREBBP (GeneID 1387)	Vehicle	OCI-P5x (serous)	2
64.2	active	CREBBP (GeneID 1387)	Vehicle	OCI-P5x (serous)	3
47.8	active	SMAD1 (GeneID 4086)	Rucaparib	OCI-C5x (clear cell)	1
45.1	active	SMAD1 (GeneID 4086)	Rucaparib	OCI-C5x (clear cell)	2
50.5	active	SMAD1 (GeneID 4086)	Rucaparib	OCI-C5x (clear cell)	3
52.5	active	SMAD1 (GeneID 4086)	Rucaparib	OCI-P5x (serous)	1
54.7	active	SMAD1 (GeneID 4086)	Rucaparib	OCI-P5x (serous)	2
56.9	active	SMAD1 (GeneID 4086)	Rucaparib	OCI-P5x (serous)	3
36.6	active	SMAD1 (GeneID 4086)	Vehicle	OCI-C5x (clear cell)	1
39	active	SMAD1 (GeneID 4086)	Vehicle	OCI-C5x (clear cell)	2
36.6	active	SMAD1 (GeneID 4086)	Vehicle	OCI-C5x (clear cell)	3
40.8	active	SMAD1 (GeneID 4086)	Vehicle	OCI-P5x (serous)	1
41.3	active	SMAD1 (GeneID 4086)	Vehicle	OCI-P5x (serous)	2
43.2	active	SMAD1 (GeneID 4086)	Vehicle	OCI-P5x (serous)	3

Part of the list above in another layout:
CREBBP (GeneID 1387), rucaparib or vehicle Vehicle, cell line OCI-C5x (clear cell), technical replicate 1
- viability, normalised (%): 36
- call: active

CREBBP (GeneID 1387), rucaparib or vehicle Vehicle, cell line OCI-C5x (clear cell), technical replicate 2
- viability, normalised (%): 37.8
- call: active
